Laboratory results reported in article PMC5406014.
No constants are given. Whether binding was seen depends on the method and setting. In cells and extracts the contact can be indirect. These calls come from enrichment with a bait or labelling near it, and not all partners need be listed. For part of these data: Where a sequence is shown, tags or fusion partners need not be part of it.

T1: myc-BirA-TRF1, P54274
T1 chain: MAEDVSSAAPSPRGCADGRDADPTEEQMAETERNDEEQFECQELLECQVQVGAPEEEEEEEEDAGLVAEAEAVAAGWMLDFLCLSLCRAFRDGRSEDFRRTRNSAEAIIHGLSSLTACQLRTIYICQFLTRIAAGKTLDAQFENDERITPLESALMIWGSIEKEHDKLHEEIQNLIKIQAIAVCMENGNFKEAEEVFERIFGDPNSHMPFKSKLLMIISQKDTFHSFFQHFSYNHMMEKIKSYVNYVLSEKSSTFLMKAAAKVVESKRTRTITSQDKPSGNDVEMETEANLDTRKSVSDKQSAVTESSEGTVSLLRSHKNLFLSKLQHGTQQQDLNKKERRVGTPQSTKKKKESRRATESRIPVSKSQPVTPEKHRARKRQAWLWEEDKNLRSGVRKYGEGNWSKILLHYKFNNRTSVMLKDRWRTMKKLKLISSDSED

B1: APOLLO (protein, UniProt Q9H816 1-532)
chain: MNGVLIPHTPIAVDFWSLRRAGTARLFFLSHMHSDHTVGLSSTWARPLYCSPITAHLLHRHLQVSKQWIQALEVGESHVLPLDEIGQETMTVTLLDANHCPGSVMFLFEGYFGTILYTGDFRYTPSMLKEPALTLGKQIHTLYLDNTNCNPALVLPSRQEAAHQIVQLIRKHPQHNIKIGLYSLGKESLLEQLALEFQTWVVLSPRRLELVQLLGLADVFTVEEKAGRIHAVDHMEICHSNMLRWNQTHPTIAILPTSRKIHSSHPDIHVIPYSDHSSYSELRAFVAALKPCQVVPIVSRRPCGGFQDSLSPRISVPLIPDSVQQYMSSSSRKPSLLWLLERRLKRPRTQGVVFESPEESADQSQADRDSKKAKKEKLSPWPADLEKQPSHHPLRIKKQLFPDLYSKEWNKAVPFCESQKRVTMLTAPLGFSVHLRSTDEEFISQKTREEIGLGSPLVPMGDDDGGPEATGNQSAWMGHGSPLSHSSKGTPLLATEFRGLALKYLLTPVNFFQAGYSSRRFDQQVEKYHKPC
B2: TRF2, Q15554 1-542 (protein)
chain: MAAGAGTAGPASGPGVVRDPAASQPRKRPGREGGEGARRSDTMAGGGGSSDGSGRAAGRRASRSSGRARRGRHEPGLGGPAERGAGEARLEEAVNRWVLKFYFHEALRAFRGSRYGDFRQIRDIMQALLVRPLGKEHTVSRLLRVMQCLSRIEEGENLDCSFDMEAELTPLESAINVLEMIKTEFTLTEAVVESSRKLVKEAAVIICIKNKEFEKASKILKKHMSKDPTTQKLRNDLLNIIREKNLAHPVIQNFSYETFQQKMLRFLESHLDDAEPYLLTMAKKALKSESAASSTGKEDKQPAPGPVEKPPREPARQLRNPPTTIGMMTLKAAFKTLSGAQDSEAAFAKLDQKDLVLPTQALPASPALKNKRPRKDENESSAPADGEGGSELQPKNKRMTISRLVLEEDSQSTEPSAGLNSSQEAASAPPSKPTVLNQPLPGEKNPKVPKGKWNSSNGVEEKETWVEEDELFQVQAAPDEDSTTNITKKQKWTVEESEWVKAGVQKYGEGNWAAISKNYPFVNRTAVMIKDRWRTMKRLGMN
B3: RAP1 (protein, UniProt Q9NYB0 1-399)
chain: MAEAMDLGKDPNGPTHSSTLFVRDDGSSMSFYVRPSPAKRRLSTLILHGGGTVCRVQEPGAVLLAQPGEALAEASGDFISTQYILDCVERNERLELEAYRLGPASAADTGSEAKPGALAEGAAEPEPQRHAGRIAFTDADDVAILTYVKENARSPSSVTGNALWKAMEKSSLTQHSWQSLKDRYLKHLRGQEHKYLLGDAPVSPSSQKLKRKAEEDPEAADSGEPQNKRTPDLPEEEYVKEEIQENEEAVKKMLVEATREFEEVVVDESPPDFEIHITMCDDDPPTPEEDSETQPDEEEEEEEEKVSQPEVGAAIKIIRQLMEKFNLDLSTVTQAFLKNSGELEATSAFLASGQRADGYPIWSRQDDIDLQKDDEDTREALVKKFGAQNVARRIEFRKK

Key:
[1] = target: myc-BirA-TRF1 (UniProt P54274); assay: proximity labelling; BioID in ALT+ U2OS cells stably expressing myc-BirA-TRF1; 50 µM biotin for 24 hr; streptavidin pull-down from ~6 x 10^7 cells, LC-MS in triplicate; myc-BirA cells as negative reference
[2] = target: myc-BirA-TRF1 (UniProt P54274); assay: proximity labelling; BioID in TEL+ HeLa LT cells stably expressing myc-BirA-TRF1; 50 µM biotin for 24 hr; streptavidin pull-down from ~6 x 10^7 cells, LC-MS in triplicate; myc-BirA cells as negative reference
[3] = target: T1, myc-BirA-TRF1, P54274; assay: proximity labelling; BioID in U2OS cells expressing myc-BirA-TRF1; 50 µM biotin for 24 hr; streptavidin pull-down read by western blot with specific antibodies; details: remark: other sources report otherwise
[4] = target: myc-BirA-TRF1 (UniProt P54274); assay: as above

Binder | binding [1] | binding [2] | binding [3] | binding [4]
B1 | binds | binds |  | 
B2 |  |  | binds | 
B3 | binds | binds |  | binds
